Test results from PubChem BioAssay AID540256 (National Center for Advancing Translational Sciences (NCATS), 2011).
Out of some 300,000 compounds screened, about 3,700 (1.2%) were called active. Inconclusive results, whose numbers are uncertain, are shown with a selection of clear calls. The call rests on the fitted dose curve; tested in HEK293 cells. A potency beside an inconclusive call is a rough fit, not a confirmed value.

assay: qHTS for Inhibitors of binding or entry into cells for Lassa Virus; details: Lassa virus pseudotype entry inhibition, cell reporter; activity change, negative = inhibition: at 37.9 µM (top of the series) unless noted; further: nearly all actives have a fitted effect of over 50% in size
On the % scale 0 is the no-effect control and ±100 the full control effect; potency means the concentration at half of the fitted maximal effect.

Question: Which Potency does the source give for `CC1=CC[C@@H](COc2ccccc2)O[C@@]2(C1)C(=O)Nc1ccccc12` here?
Answer: The Potency was inconclusive: 0.335 µM [activator, single point].

Question: For `NC(=O)c1ccccc1NS(=O)(=O)Cc1ccc(Cl)cc1`, which Potency is on record?
Answer: Its Potency is inconclusive: 0.184 µM [activator, full curve, poor fit].

Question: Which Potency does the source give for `COc1cc2c(cc1OC)CN(C(=O)/C=C/c1ccccc1[N+](=O)[O-])CC2` here?
Answer: Its Potency is inconclusive: 8.91 µM [inhibitor, partial curve, poor fit].

Question: Which Potency does the source give for `O=C(CCN1CCN(C(c2ccccc2)c2ccccc2)CC1)N/N=C/c1ccc(O)cc1O` here?
Answer: The Potency was inconclusive: 20.6 µM [inhibitor, partial curve].

Question: Which Potency does the source give for `O=C(NCc1ccc(F)cc1)c1cc(-c2cccs2)on1` here?
Answer: The Potency was inconclusive: 23.1 µM [activator, partial curve, poor fit].

Question: For `CCOc1cccc2cc(-c3nc(-c4ccccc4C)no3)c(=O)oc12`, which Potency is on record?
Answer: The Potency was inconclusive: 8.91 µM [activator, partial curve, poor fit].

Question: With `O=C(c1cc(Br)ccc1Cl)N1CCN(c2ccc(N3CCOCC3)nn2)CC1` as the compound, how does the Potency read?
Answer: The Potency was inconclusive: 35.5 µM [inhibitor, single point].

Question: With `Cc1cccc(N2CCN(C(=O)CCN3C(=S)NC(C)(C)CC3C)CC2)c1C` (stereo not drawn) as the compound, how does the Potency read?
Answer: Its Potency is inconclusive: 1.26 µM [inhibitor, single point].

Question: Which Potency does the source give for `COc1ccc(COc2ccccc2C(=O)NCc2ccccc2)cc1F` here?
Answer: The Potency was inconclusive: 1 µM [inhibitor, single point].

Question: For `CC(C)(C)c1ccc(C(=O)c2c[nH]c(C(=O)NCC3CCCO3)c2)cc1` (stereo not drawn), which Potency is on record?
Answer: The Potency was inconclusive: 25.1 µM [inhibitor, single point].

Question: With `COc1ccc(Cc2nnc(NS(C)(=O)=O)s2)cc1` as the compound, how does the Potency read?
Answer: Its Potency is inconclusive: 0.184 µM [inhibitor, full curve, poor fit].

Question: With `CCc1cc2c(SCC#N)ncnc2s1` as the compound, how does the Potency read?
Answer: Its Potency is inconclusive: 0.562 µM [inhibitor, full curve, poor fit].

Question: Which “activity change, negative = inhibition” value does the source give for `O=C(c1ccccc1F)N1CCN(c2ccc([N+](=O)[O-])c(NCc3cccnc3)c2)CC1` here?
Answer: Its value is inactive: -10.6%.

Question: Which “activity change, negative = inhibition” value does the source give for `CC(=O)Nc1c(O)nc(SCC(=O)Nc2cccc(C)c2)[nH]c1=O` here?
Answer: Its value is inactive: 18.7%.

Question: With `Cc1cc(Nc2nc3ccccc3nc2Cl)n(-c2ccccc2C)n1` as the compound, how does the “activity change, negative = inhibition” value read?
Answer: The value was inactive: -5.93%.

Question: For `COc1ccc(NC(=O)c2cccc(OS(=O)(=O)N(C)C)c2)cc1`, which Potency is on record?
Answer: The Potency was inconclusive: 35.5 µM [inhibitor, single point].

Question: For `OCC1OC(n2nnc3ccccc32)C(O)C(O)C1O` (stereo not drawn), which Potency is on record?
Answer: Its Potency is inconclusive: 3.26 µM [activator, partial curve, poor fit].

Question: For `CCC(=O)NC(=S)Nc1ccc(Cl)cn1`, which “activity change, negative = inhibition” value is on record?
Answer: The value was inactive: 18%.
